Test results taken from publication PMC5548745, “Agonist-induced dimer dissociation as a macromolecular step in G protein-coupled receptor signaling” (Nature Communications, 2017).
Numbering of substitutions follows the chain as printed. Names may count otherwise. No constants are given. Whether binding was seen depends on the method and setting. Some binding calls cover weakened binding; strength is not graded here. For some assays here: Where a sequence is shown, tags or fusion partners need not be part of it.

Chains of the proteins cited; added tags and fusions are not shown.
UniProt P63096: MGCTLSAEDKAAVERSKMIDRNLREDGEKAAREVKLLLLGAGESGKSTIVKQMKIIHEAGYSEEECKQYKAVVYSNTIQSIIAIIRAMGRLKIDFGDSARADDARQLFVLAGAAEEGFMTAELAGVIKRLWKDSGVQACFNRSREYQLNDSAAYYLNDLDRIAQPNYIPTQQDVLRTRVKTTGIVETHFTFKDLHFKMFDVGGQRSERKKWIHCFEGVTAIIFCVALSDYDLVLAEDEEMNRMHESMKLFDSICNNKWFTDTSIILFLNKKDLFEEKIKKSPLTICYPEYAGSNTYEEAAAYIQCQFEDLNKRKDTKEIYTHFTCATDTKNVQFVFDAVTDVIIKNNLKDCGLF

T1: FZD6-mCherry dimer mutant (D365A, R368A, Y369A) (human) (UniProt O60353)
T1 sequence: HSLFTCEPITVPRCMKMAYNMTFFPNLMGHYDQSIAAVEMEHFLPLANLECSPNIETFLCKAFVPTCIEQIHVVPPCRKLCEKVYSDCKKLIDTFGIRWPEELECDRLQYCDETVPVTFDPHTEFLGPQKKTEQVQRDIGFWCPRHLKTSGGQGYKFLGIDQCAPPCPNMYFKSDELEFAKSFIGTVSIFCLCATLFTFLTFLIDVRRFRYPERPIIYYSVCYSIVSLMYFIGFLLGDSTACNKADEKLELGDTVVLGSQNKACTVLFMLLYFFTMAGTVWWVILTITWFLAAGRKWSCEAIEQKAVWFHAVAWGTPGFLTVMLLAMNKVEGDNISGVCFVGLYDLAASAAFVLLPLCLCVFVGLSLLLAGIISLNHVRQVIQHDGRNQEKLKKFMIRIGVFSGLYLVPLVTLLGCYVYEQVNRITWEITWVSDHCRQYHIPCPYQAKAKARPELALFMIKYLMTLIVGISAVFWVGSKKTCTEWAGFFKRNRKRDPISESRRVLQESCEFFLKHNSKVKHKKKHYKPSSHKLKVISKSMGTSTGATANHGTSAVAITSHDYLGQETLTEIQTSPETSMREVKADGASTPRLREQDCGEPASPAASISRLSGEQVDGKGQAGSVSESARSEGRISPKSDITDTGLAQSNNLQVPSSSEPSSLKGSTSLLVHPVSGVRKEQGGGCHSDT

T2: Frizzled 6 (FZD6), wild type, expressed as V5-FZD6-mCherry and as FZD6-GFP (human) (UniProt O60353)
T2 sequence: T1 sequence with A347D, A350R, A351Y

B1: Frizzled 6 (FZD6), wild type, expressed as V5-FZD6-mCherry and as FZD6-GFP (receptor, human, UniProt O60353 19-706, looked up)
chain: T1 sequence with A347D, A350R, A351Y
notes: Frizzled 6 (FZD6), human, Uniprot ID O60353; Two differently tagged copies of the same receptor are tested against each other, so they are written as one molecule; The FCS experiment used FZD6-GFP alone; also called FZD6 wt; source: HEK293, transiently transfected (Lipofectamine 2000), in living cells; not shown: V5 (on the crosslinked copy), N-terminal, kept; mCherry (on the crosslinked copy), …
B2: FZD6-GFP dimer control mutant (D365E, R368K, Y369F) (receptor, UniProt O60353 19-706)
chain: T1 sequence with A347E, A350K, A351F
B3: FZD6 F337A mutant (receptor, UniProt O60353 19-706)
chain: T1 sequence with F319A, A347D, A350R, A351Y
B4: HA-tagged TM5 minigene of FZD6 (peptide)
peptide: KKLDASRYFVLLPLCLCVFVGLSLLLAGIISKKK

How the values were obtained:
[1] = target: T1, FZD6-mCherry dimer mutant (D365A, R368A, Y369A) (human); experiment: dual color FRAP (dcFRAP) with chemical surface crosslinking; living HEK293 cells; FZD6 dimer mutant (mCherry) immobilised by chemical surface crosslinking; mobile fraction of the GFP-tagged intracellular partner
[2] = target: T2, Frizzled 6 (FZD6), wild type, expressed as V5-FZD6-mCherry and as FZD6-GFP (human); experiment: dual color FRAP (dcFRAP) with antibody surface crosslinking; as a1, with co-transfected HA-tagged TM1 (control) or TM5 minigene
[3] = target: T2, Frizzled 6 (FZD6), wild type, expressed as V5-FZD6-mCherry and as FZD6-GFP (human); experiment: dual color FRAP (dcFRAP) with antibody surface crosslinking; living HEK293 cells; V5-FZD6-mCherry immobilised at the surface with biotinylated anti-V5 antibody and avidin; mobile fraction of the co-expressed GFP construct before and after crosslinking; BE buffer, RT; also done with pan-DVL siRNA, with overexpressed DVL2-MYC, and 10-20 min after WNT-5A (300 ng ml^-1)
[4] = target: T2, Frizzled 6 (FZD6), wild type, expressed as V5-FZD6-mCherry and as FZD6-GFP (human); experiment: fluorescence correlation spectroscopy (FCS), transit diffusion time; living HEK293 cells expressing one GFP-tagged construct; porcupine inhibitor C59 5 µM overnight
[5] = target: T2, Frizzled 6 (FZD6), wild type, expressed as V5-FZD6-mCherry and as FZD6-GFP (human); experiment: fluorescence cross-correlation spectroscopy (FCCS); living HEK293 cells co-expressing FZD6-GFP and V5-FZD6-mCherry at low levels (10-1000 receptors per µm^2), no crosslinking; dynamic measurements before and after WNT-5A (300 ng ml^-1)

| Molecule | binding [2] | binding [3] | also measured |
| --- | --- | --- | --- |
| Gαi1-GFP (from UniProt P63096 1-354) | – | – | binding [1]: no binding |
| B1 | binds | binds | binding [4]: binds; binding [5]: binds |
| B2 | – | binds | – |
| B3 | – | binds | – |
| B4 | binds | – | – |
